Laboratory results: PubChem BioAssay AID504791 (Drosophila RNAi Screening Center, 2011)

- Aim: 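Genes of the fly required for silencing by miRNA, siRNA or endo-siRNA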 (primary screen)
- System: Drosophila S2-derived reporter cells
- Reagents: long dsRNA against Drosophila genes, about 150-250 ng dsRNA per well (siRNA assay); about 80-120 ng (miRNA assay)
- Duration: about 5 days (siRNA assay); about 4 days (miRNA assay)
- Conditions: copper sulfate induction of reporters: 25 µM (siRNA assay); 200 mM stated (miRNA assay), 1-2 days before reading
- Measurement: 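Dual luciferase assay: Renilla to firefly signal ratio in each well, scaled to the mean ratio of its plate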
- Units: stable assay Renilla, run 1 in luminescence; stable assay firefly, run 1 in luminescence
- Call rule: 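First-pass picks had plate-scaled ratios over 1.5 for the siRNA assay, over 1.6 for the miRNA assay, or under 0.6; two distinct dsRNAs had to score alike on retest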
The deposit covers about 23,000 reagents; shown is a random part of those that have a named target and a result. Over the whole deposit, 199 (0.86%) got an active call. 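Plate-scaled ratios behind the calls are not deposited; printed light signals are raw; many rows marked increased or decreased are still called inactive.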 The numbers tell different reagents against one gene apart. Not given: the direction of the score.

CG14893 gave stable assay Renilla, run 1 = 7334; stable assay firefly, run 1 = 4.98e5; inactive. After knock-down of CG4953, the screen gave stable assay Renilla, run 1 = 29392; stable assay firefly, run 1 = 8.28e5; inactive. For Cchl (Cytochrome c heme lyase) the deposit lists stable assay Renilla, run 1 = 7598; stable assay firefly, run 1 = 4.24e5; inactive. Against CG14763, the values are stable assay Renilla, run 1 = 6706; stable assay firefly, run 1 = 3.53e5; inactive. Against CG4743 the deposit lists stable assay Renilla, run 1 = 6915; stable assay firefly, run 1 = 2.97e5; inactive. Against mub (mushroom-body expressed), the entry reads stable assay Renilla, run 1 = 9187; stable assay firefly, run 1 = 3.61e5; inactive.

After knock-down of CG14966, the screen gave stable assay Renilla, run 1 = 6867; stable assay firefly, run 1 = 5.45e5; inactive. With knock-down of Nep2 (Neprilysin 2) #1 the results were stable assay Renilla, run 1 = 9185; stable assay firefly, run 1 = 3.91e5; inactive. For Nep2 (Neprilysin 2) #2, the entry reads stable assay Renilla, run 1 = 9020; stable assay firefly, run 1 = 4.99e5; inactive. For mat (materazzi) #1, the entry reads stable assay Renilla, run 1 = 5552; stable assay firefly, run 1 = 4.26e5; inactive. With knock-down of mat (materazzi) #2, the screen gave stable assay Renilla, run 1 = 4559; stable assay firefly, run 1 = 3.43e5; inactive. With knock-down of CG32087 the results were stable assay Renilla, run 1 = 5292; stable assay firefly, run 1 = 3.41e5; inactive.

Against Cyp6t1 (Cytochrome P450 6t1), the values are stable assay Renilla, run 1 = 5447; stable assay firefly, run 1 = 3.37e5; inactive. Depletion of Qtzl (Quetzalcoatl) resulted in: stable assay Renilla, run 1 = 5319; stable assay firefly, run 1 = 4.54e5; inactive. TotX (Turandot X) scored stable siRNA reporter change reporter ratio raised past the hit cutoff; stable assay Renilla, run 1 = 9517; stable assay firefly, run 1 = 2.89e5; inactive. Against nonA (no on or off transient A) the deposit lists stable assay Renilla, run 1 = 4975; stable assay firefly, run 1 = 5.02e5; inactive. Against CG17477, the values are stable assay Renilla, run 1 = 7508; stable assay firefly, run 1 = 4.25e5; inactive. Knock-down of CG5084 gave: stable assay Renilla, run 1 = 6135; stable assay firefly, run 1 = 4.04e5; inactive.

Depletion of Herc4 (HECT and RLD domain containing E3 ubiquitin ligase 4) gave: stable assay Renilla, run 1 = 7498; stable assay firefly, run 1 = 3.95e5; inactive. Knock-down of CG32302 gave: stable assay Renilla, run 1 = 6103; stable assay firefly, run 1 = 3.94e5; inactive. For Mrp5 (Multidrug resistance protein 5) #1, the values are stable assay Renilla, run 1 = 8105; stable assay firefly, run 1 = 3.96e5; inactive. With knock-down of Mrp5 (Multidrug resistance protein 5) #2, the record shows stable assay Renilla, run 1 = 9006; stable assay firefly, run 1 = 4.51e5; inactive. CG34450 showed stable assay Renilla, run 1 = 7971; stable assay firefly, run 1 = 5.48e5; inactive. pck (pickel) showed stable assay Renilla, run 1 = 8388; stable assay firefly, run 1 = 4.72e5; inactive.

For CG32021 (retired record) #1, the entry reads stable assay Renilla, run 1 = 5653; stable assay firefly, run 1 = 4.47e5; inactive. Knock-down of CG32021 (retired record) #2 came out at: miRNA reporter change reporter ratio lowered past the hit cutoff; active. Against Sp7 (Serine protease 7), the values are stable assay Renilla, run 1 = 6542; stable assay firefly, run 1 = 4.35e5; inactive. GstE3 (Glutathione S transferase E3) showed stable assay Renilla, run 1 = 5572; stable assay firefly, run 1 = 3.10e5; inactive.

Targets above whose gene name starts with N or n:
Nep2 (Neprilysin 2) #1: stable assay Renilla, run 1 = 9185; stable assay firefly, run 1 = 3.91e5; Call = inactive
Nep2 (Neprilysin 2) #2: stable assay Renilla, run 1 = 9020; stable assay firefly, run 1 = 4.99e5; Call = inactive
nonA (no on or off transient A): stable assay Renilla, run 1 = 4975; stable assay firefly, run 1 = 5.02e5; Call = inactive
